# Test results published in PubChem BioAssay AID662 (National Center for Advancing Translational Sciences (NCATS), 2007).
# The list shows a part of the results. Further columns of the screen follow, without active or inactive calls. Most of these compounds were active or inconclusive in the main read-out, so they are no random draw. The note in brackets gives the kind of curve behind each potency; many fits are weak.
# Assay: Cell signaling CRE-BLA (Fsk stim)
# Conditions: CHO CRE-bla reporter (cAMP response element driving beta-lactamase), forskolin EC10, beta-lactamase ratio; measured here: 460 nm blue channel
# Method in brief: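 Modulation of forskolin signalling: compounds in titration series added with EC10 NKH 477 to CHO cells carrying a CRE-driven beta-lactamase reporter, 3 h, 37C. CCF4 FRET ratio (460/530 nm, ex 405 nm) gives %activity and AC50.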
row,SMILES,AC50
1,Cc1ccc(Nc2nc3nonc3[nH]c2=O)cc1,"10 µM [falling, partial curve]"
2,O=S1(=O)N=C2CCCN2C(c2ccc(F)cc2)N1 (stereo not drawn),"12.6 µM [falling, partial curve]"
3,Cc1ccc(-c2cc(-c3ccccc3Cl)c(C#N)c(N)n2)o1,"20 µM [rising, single point]"
4,COc1ccccc1CNC(=O)CN(c1ccc(C)cc1)S(=O)(=O)c1c(C)nn(C)c1C,"0.00398 µM [falling, full curve, poor fit]"
5,CC1CC1C(=O)OCc1cc(=O)n2cc(Br)ccc2n1 (stereo not drawn),"3.98 µM [falling, single point]"
6,c1cn2cc(-c3ccc4c(c3)OCO4)nc2s1,"0.126 µM [rising, full curve]"
7,C=CCn1c(CC(=O)OC)csc1=Nc1ccc(C(C)=O)cc1,"7.94 µM [rising, partial curve]"
8,N#CCCn1c(=O)c(-c2ccc(F)cc2)nc2cnc(Oc3cccc(Cl)c3)nc21,"12.6 µM [rising, partial curve]"
9,CN1CCc2cc3c(c4c2C1CC41CCC(=NO)CC1)OCO3 (stereo not drawn),"31.6 µM [falling, single point]"
10,COc1ccc(N(C)C(=O)CCC(=O)Nc2ccc3nc(N4CCOCC4)cc(C)c3c2)c(OC)c1,"10 µM [rising, single point]"
11,COc1cc(-c2nn3c(-c4cccc(C)c4)nnc3s2)cc(OC)c1OC,"1.58 µM [rising, full curve]"
12,CCN(CC)S(=O)(=O)c1ccc2[nH]cc(C(=O)NCCC3=CCCCC3)c(=O)c2c1,"25.1 µM [falling, single point]"
13,c1ccc(-c2ccccc2-c2nc(-c3cccnc3)no2)cc1,"10 µM [rising, partial curve]"
14,CN(C1CCCCC1)S(=O)(=O)c1ccc(NC(=O)c2ccco2)cc1,"6.31 µM [rising, partial curve]"
15,Cc1cccc(Nc2nc(N)nc(CN3CCN(c4ccccc4)CC3)n2)c1,"12.6 µM [falling, single point]"
16,Cc1nc2c(cnn2-c2ccc(Cl)cc2)c(=O)n1-c1ccc2c(c1)OCCO2,"3.98 µM [rising, single point]"
17,O=C(CN1CCOc2ccccc21)N1CCN(c2cccc(Cl)c2)CC1,"15.8 µM [falling, single point]"
18,N#CCSc1nc2ccc(N3CCCCC3)cc2c(=O)n1Cc1ccccc1,"6.31 µM [rising, partial curve]"
19,COc1ccc(CC(=O)Nc2cc(C)c3c(=O)oc4ccccc4c3n2)cc1,"12.6 µM [rising, partial curve]"
20,O=C(Nc1ccccc1)N1CCN(c2nc3ccccc3s2)CC1,"10 µM [rising, partial curve]"
21,CCC(=O)N1CCc2cc(S(=O)(=O)NCCC(=O)N3CCN(c4ccccn4)CC3)ccc21,"0.0251 µM [falling, full curve, poor fit]"
22,COc1ccc(-c2nc(NC(=O)c3cc(C(C)(C)C)nn3C)sc2C)cc1,"25.1 µM [falling, single point]"

row,SMILES,AC50
1,CCOC(=O)c1c(NC(=O)c2nc3n(n2)C(C(F)F)CC(C)N3)sc2c1CCCC2 (stereo not drawn),"3.98 µM [rising, full curve]"
2,Cc1ccc2c(c1)c1ncnc(N3CCC4(CC3)OCCO4)c1n2C,"15.8 µM [rising, single point]"
3,CN1CCN(c2nc(-c3ccccc3C(F)(F)F)nc3ccccc23)CC1,"6.31 µM [rising, partial curve]"
4,COC(=O)CSc1nc2cc(OC)ccc2cc1C#N,"12.6 µM [rising, single point]"
5,COC(=O)CCSc1nccn1Cc1ccccc1,"6.31 µM [falling, partial curve]"
6,Cc1ccc(-c2nn3c(C)nnc3s2)cc1NC(=O)C(C)C,"10 µM [rising, partial curve]"
7,S=C(S)O[C@@H]1C[C@@H]2C[C@H]1[C@@H]1CCC[C@H]21,"31.6 µM [falling, partial curve, poor fit]"
8,COc1ccc(-c2nnc(SCC(=O)NC3CCCCC3)o2)cc1OC,"10 µM [rising, partial curve]"
9,Cc1c(C(=O)NCc2ccc3c(c2)OCO3)oc2ccc(S(=O)(=O)N3CCC(C)CC3)cc12,"10 µM [falling, partial curve]"
10,COc1ccc(-c2noc(-c3cc(C)cc(C)c3)n2)cc1OC,"2.51 µM [rising, full curve]"
11,N/C(=N\O)c1ccc(NC(=O)c2ccc(Br)o2)cc1,"6.31 µM [falling, full curve]"
12,OCCN(CC(O)Cn1ccc2ccccc21)CC(O)Cn1ccc2ccccc21 (stereo not drawn),"20 µM [falling, partial curve, poor fit]"
13,C=CCn1c(SCC(=O)Nc2c(C)cccc2C)nnc1-c1cnccn1,"25.1 µM [rising, single point]"
14,N#Cc1ccccc1-c1ccc2ncnc(NCCN3CCOCC3)c2c1,"10 µM [rising, partial curve]"
15,COCCn1c(=O)c(-c2ccc(OC)cc2)nc2cnc(OC)nc21,"12.6 µM [rising, partial curve]"
16,CCCn1c(SCC(=O)Nc2sc(C)c(C)c2C(=O)OCC)nc2c1c(=O)n(C)c(=O)n2C,"1 µM [falling, single point]"
17,COC(=O)c1ccc(OC)c(CSc2nnc(COc3ccccc3)o2)c1,"12.6 µM [rising, single point]"
18,CC1(C)C(c2ccccc2)=[N+]([O-])CN1O,"0.794 µM [falling, full curve]"
19,N#Cc1ccsc1NC(=O)COC(=O)CCCSc1nc2ccccc2s1,"0.2 µM [falling, full curve, poor fit]"
20,CC(=O)Nc1ccc(NC(=O)c2cccc(C(=O)OC(C)C)n2)cc1,"25.1 µM [rising, single point]"
21,COC(=O)c1cnn2c3c(c(C)nc12)CCCC3,"10 µM [rising, single point]"

# An excerpt from the list above, as a working copy:
row,SMILES,AC50
14,N#Cc1ccccc1-c1ccc2ncnc(NCCN3CCOCC3)c2c1,"10 µM [rising, partial curve]"
15,COCCn1c(=O)c(-c2ccc(OC)cc2)nc2cnc(OC)nc21,"12.6 µM [rising, partial curve]"
16,CCCn1c(SCC(=O)Nc2sc(C)c(C)c2C(=O)OCC)nc2c1c(=O)n(C)c(=O)n2C,"1 µM [falling, single point]"
17,COC(=O)c1ccc(OC)c(CSc2nnc(COc3ccccc3)o2)c1,"12.6 µM [rising, single point]"
